Measured values from patent publication US20220403048A1, “BINDING MOLECULES TO ARGINASE II [ARG2]” (Cancer Research Technology Limited, priority 2019, published 2022).
These are yes or no findings as the source states them, for the method shown. A result given as binding can be weak or reduced; the word gives no strength.

Legend:
[1] = target: biotinylated recombinant human trimeric ARG2 enzyme (Avi-huARG2-His10) (human); experiment: HTRF direct binding assay, biotinylated recombinant human trimeric ARG2, streptavidin cryptate and anti-c-myc-XL665, % Delta F
[2] = target: biotinylated recombinant human trimeric ARG2 enzyme (Avi-huARG2-His10) (human); experiment: HTRF direct binding, purified scFv

B1: C0020065 scFv (scFv, V domains shown)
VH: GVNLRESGGGVVQPGRSLRLSCAASGFTFSSYAMHWVRQAPGKGLEWVAVISYDGSNKYYVDSVKGRFTISRDNSKNTLYLQMNSLRAEDTAVYYCARDSSQLWFDYWGRGTLVTVSS
VL: QSVVTQPPSVSGAPGQRVTISCTGSSSNIGTGYDVHWYQQLPGTAPKLLIYGNSNRPSGVPDRFSGSKSGTSASLAITGLQAEDEADYYCQSYDSSLSGSVVFGGGTQLTVL
B1 was tested, and the binding [1] was “binds” and the binding [2] was “binds”.
